Laboratory results published in patent US20030207791A1, “Materials and methods relating to the treatment of leukaemias” (priority 2000, published 2003).
No constants are given. Whether binding was seen depends on the method and setting. For part of these data: Binding seen in cells or lysates may run through a third protein. Some results given as binding are weak or reduced against the parent protein; the word gives no strength. For part of these data: Tags and fused reporters may be left off the sequences shown.

Experiments:
[1] = molecular target: T1, GST-NCoR (1782-2453) (UniProt Q60974); experiment: GST pull-down, in vitro translated 35S-labelled protein on GST-NCoR agarose beads
T1 sequence (looked up): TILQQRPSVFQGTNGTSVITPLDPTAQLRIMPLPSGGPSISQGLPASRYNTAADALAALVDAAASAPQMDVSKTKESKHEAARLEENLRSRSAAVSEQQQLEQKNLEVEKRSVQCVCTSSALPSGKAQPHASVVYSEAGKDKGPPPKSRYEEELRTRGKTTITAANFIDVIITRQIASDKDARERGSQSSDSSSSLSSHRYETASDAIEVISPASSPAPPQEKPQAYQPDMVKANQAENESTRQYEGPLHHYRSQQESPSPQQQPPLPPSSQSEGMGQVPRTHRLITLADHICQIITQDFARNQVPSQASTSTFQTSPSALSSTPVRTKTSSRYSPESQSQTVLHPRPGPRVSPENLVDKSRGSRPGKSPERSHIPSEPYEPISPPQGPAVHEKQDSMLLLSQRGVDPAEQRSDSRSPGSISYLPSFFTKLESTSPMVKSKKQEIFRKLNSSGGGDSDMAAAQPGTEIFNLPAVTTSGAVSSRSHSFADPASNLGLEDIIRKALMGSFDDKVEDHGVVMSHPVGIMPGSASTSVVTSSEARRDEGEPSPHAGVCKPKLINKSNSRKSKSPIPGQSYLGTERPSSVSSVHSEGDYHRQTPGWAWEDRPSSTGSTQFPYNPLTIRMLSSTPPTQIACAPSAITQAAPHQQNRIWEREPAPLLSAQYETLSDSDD

[2] = molecular target: CC-RAR (human) (UniProt P10276); experiment: gel filtration of nuclear extracts, Western blot with anti-RAR
[3] = molecular target: PML-RAR (UniProt P29590); experiment: mobility shift on agarose gels, Xenopus oocyte extracts, RARE probe

B1: CC-RAR (protein)
chain: SELKCDISAEIQQRQEELDAMTQALQALQEQDSAEGAVHAQMHAAVGQLGRARAETEELIRERVRQVVAHVRAQERELLEAVDARYQRDYEEMASRLGRLDAVLQRIRTGSALVQRMKCYASDQEVLDMHGFLRQALCRLRMASNSSSCPTPGGGHLNGYPVPPYAFFFPPMLGGLSPPGALTTLQHQLPVSGYSTPSPATIETQSSSSEEIVPSPPSPPPLPRIYKPCFVCQDKSSGYHYGVSACEGCKGFFRRSIQKNMVYTCHRDKNCIINKVTRNRCQYCRLQKCFEVGMSKESVRNDRNKKKKEVPKPECSESYTLTPEVGELIEKVRKAHQETFPALCQLGKYTTNNSSEQRVSLDIDLWDKFSELSTKCIIKTVEFAKQLPGFTTLTIADQITLLKAACLDILILRICTRYTPEQDTMTFSDGLTLNRTQMHNAGFGPLTDLVFAFANQLLPLEMDDAETGLLSAICLICGDRQDLEQPDRVDMLQEPLLEALKVYVRKRRPSRPHMFPKMLMKITDLRSISAKGAERVITLKMEIPGSMPPLIQEMLENSEGLDTLSGQPGGGGRDGGGLAPPPGSCSPSLSPSSNRSSPATHSP
- binding [1]: binds
- binding [2]: binds

B2: GST-NCoR (1782-2453) (protein, UniProt Q60974 1782-2453, looked up, not shown: a dimerising Fc or GST)
chain: TILQQRPSVFQGTNGTSVITPLDPTAQLRIMPLPSGGPSISQGLPASRYNTAADALAALVDAAASAPQMDVSKTKESKHEAARLEENLRSRSAAVSEQQQLEQKNLEVEKRSVQCVCTSSALPSGKAQPHASVVYSEAGKDKGPPPKSRYEEELRTRGKTTITAANFIDVIITRQIASDKDARERGSQSSDSSSSLSSHRYETASDAIEVISPASSPAPPQEKPQAYQPDMVKANQAENESTRQYEGPLHHYRSQQESPSPQQQPPLPPSSQSEGMGQVPRTHRLITLADHICQIITQDFARNQVPSQASTSTFQTSPSALSSTPVRTKTSSRYSPESQSQTVLHPRPGPRVSPENLVDKSRGSRPGKSPERSHIPSEPYEPISPPQGPAVHEKQDSMLLLSQRGVDPAEQRSDSRSPGSISYLPSFFTKLESTSPMVKSKKQEIFRKLNSSGGGDSDMAAAQPGTEIFNLPAVTTSGAVSSRSHSFADPASNLGLEDIIRKALMGSFDDKVEDHGVVMSHPVGIMPGSASTSVVTSSEARRDEGEPSPHAGVCKPKLINKSNSRKSKSPIPGQSYLGTERPSSVSSVHSEGDYHRQTPGWAWEDRPSSTGSTQFPYNPLTIRMLSSTPPTQIACAPSAITQAAPHQQNRIWEREPAPLLSAQYETLSDSDD
- binding [3]: binds
